Reference: patent US12071426B2, “IRE1 small molecule inhibitors” (Cornell University, priority 2018, dated 2024)
Some results were stated once for a whole list of compounds, not compound by compound.

Test system: 293T cells
Test: Growth assay (cytotoxicity)
Format: cell-based
Settings: 2 day incubation

| Structure (SMILES) | percentage growth at 5 uM |
| --- | --- |
| CCc1cc(-c2ccc(NS(=O)(=O)c3cnccc3Cl)nc2C)cc2cnc(N[C@H]3CC[C@H](N(C)C)CC3)nc12 [Compound 1, 4-chloro-N-(5-(2-(((1r,4r)-4-(dimethylamino)cyclohexyl)-amino)-8-ethylquinazolin-6-yl)-6-methylpyridin-2-yl)-pyridine-3-sulfonamide] | greater than 90% |
| CCc1cc(-c2ccc(NS(=O)(=O)c3ccccc3Cl)nc2C)nc2cnc(N[C@H]3CC[C@H](N(C)C)CC3)nc12 [Compound 2, 2-chloro-N-(5-(2-(((1r,4r)-4-(dimethylamino)cyclohexyl)-amino)-8-ethylpyrido[3,2-d]-pyrimidin-6-yl)-6-methyl-pyridin-2-yl)benzenesulfon-amide] | greater than 90% |
